In all, about 350,000 compounds went through this assay and about 180 (0.051%) were called active. This list was built around the results that the source calls inconclusive (neither active nor inactive); the mix of calls is not that of the screen.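 How the source made its calls: active means mean inhibition across replicates of 30% or more, whatever share of single replicates reach that level; inconclusive means mean inhibition below 30% while every single replicate reaches 30%; inactive means the rest.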
target: Protein disulfide-isomerase (Homo sapiens) (UniProt P07237); test: blockers of PDI-driven insulin aggregation – biochemical, turbidity, single point, plate reader, primary screen (AID 588391); conditions: A650, 90 min, at 10 µM, active compounds read high;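 further: absorbance from insulin aggregation driven by PDI reduction with DTT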

Sequences of proteins named here, by UniProt entry; tags and fusion partners are left off.
UniProt P07237, whole entry, looked up: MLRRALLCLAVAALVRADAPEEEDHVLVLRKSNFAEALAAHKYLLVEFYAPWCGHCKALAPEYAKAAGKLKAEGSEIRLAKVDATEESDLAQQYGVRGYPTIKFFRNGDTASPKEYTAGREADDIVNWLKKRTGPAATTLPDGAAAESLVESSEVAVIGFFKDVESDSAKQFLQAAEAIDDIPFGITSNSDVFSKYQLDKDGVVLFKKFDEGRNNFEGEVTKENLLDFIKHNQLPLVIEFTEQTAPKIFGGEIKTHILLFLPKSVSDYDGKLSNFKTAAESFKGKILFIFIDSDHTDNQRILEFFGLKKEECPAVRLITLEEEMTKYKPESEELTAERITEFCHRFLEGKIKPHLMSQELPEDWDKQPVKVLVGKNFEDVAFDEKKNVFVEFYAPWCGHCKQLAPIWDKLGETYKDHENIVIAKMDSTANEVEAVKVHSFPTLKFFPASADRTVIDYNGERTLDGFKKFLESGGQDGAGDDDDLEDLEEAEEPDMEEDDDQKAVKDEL

Structure (SMILES)	inhibition
COc1ccc(-c2ncn(CCC#N)c2[N+](=O)[O-])cc1	inconclusive: 41.6%
CCOc1ccc(C(=S)N2CCCC2)cc1	inconclusive: 39.8%
COC(=O)CC1OCC=C2CN3CCC45C6=CC(=O)C(=O)C([N+](=O)[O-])=C6NC4C1C2CC35 (stereo not given)	active: 85%
CCCCC(=O)NC(=S)Nc1cc(C(=O)O)ccc1OC	inactive: -3.35%
O=C(c1ccc(NS(=O)(=O)c2ccccc2)cc1)N1CCOCC1	inconclusive: 34.2%
CC(C)CCOc1ccc(C2(C)NC(=O)N(CN3CCOCC3)C2=O)cc1 (stereo not given)	inconclusive: 31.3%
Cc1cccc(NC(=S)NCC23C=CC(O2)C2C(=O)N(c4ccc(Cl)cc4)C(=O)C23)c1 (stereo not given)	inconclusive: 38.9%
Clc1ccc(C(c2nnnn2CCc2ccccc2)N2CCSCC2)cc1 (stereo not given)	inactive: 3.83%
O=C(NC(Cc1c[nH]c2ccccc12)C(=O)N/N=C/c1cccnc1)c1cccs1 (stereo not given)	inconclusive: 35.7%
O=C(c1cc([N+](=O)[O-])ccc1N1CCOCC1)N1CCN(c2ccc([N+](=O)[O-])cc2)CC1	active: 35.7%
C=CCSc1nc2ccccc2c2nc(-c3ccccc3)nn12	inconclusive: 35.6%
O=C1NNC(c2ccccc2)=N/C1=C\c1ccccc1Cl	inconclusive: 32.2%
CC(=O)N1CCC(=NNc2ccnc3cc(Cl)ccc23)CC1	inconclusive: 38.8%
CC1CCCN(c2cc3c(cc2[N+](=O)[O-])C(=O)N(c2ccccc2)C3=O)C1 (stereo not given)	inconclusive: 44.4%
O=C(Nc1ccccc1)c1cc(C2CCCCN2C(=O)c2ccccc2)on1 (stereo not given)	inconclusive: 101%
CCCCn1c(SCC(=O)Nc2ccc(C)c(S(=O)(=O)N3CCOCC3)c2)nnc1C(CC)N(C)C (stereo not given)	active: 32%
COc1c(Br)cc(C(N)=O)cc1OCc1ccccc1	inconclusive: 31%
O=C(Cc1ccccc1)Nc1cccc(C(=O)N/N=C/c2ccco2)c1	inconclusive: 30.8%
Cc1cc(C)cc(NS(=O)(=O)c2ccc(-c3cnc(C4CC4)o3)cc2)c1	inactive: 0.707%
N#CCc1ccc(C(=O)c2ccccc2F)s1	inconclusive: 36.9%
CCCCNC(=O)N1CCN(C(=O)C2CCCO2)CC1 (stereo not given)	inconclusive: 35.2%
CC(C)N(C)C(=O)CCc1nnc(CCc2c[nH]c3ccccc23)o1	inconclusive: 32.2%

Structure (SMILES)	inhibition
O=C(/C=C/c1ccc(NC(=O)c2ccccc2-c2ccccc2C(=O)O)cc1)c1ccccc1	inconclusive: 37.8%
O=c1cc(CSc2nnnn2-c2ccc(O)cc2)nc2sccn12	active: 38.9%
Cc1noc(C)c1S(=O)(=O)Nc1ccc2c(c1)CC(=O)N([C@H](C)CO)C[C@H](C)[C@H](CN(C)S(=O)(=O)c1ccc(F)cc1)O2	inconclusive: 33.1%
O=C(Nc1ccccc1C(=O)NC1CC1)c1ccccc1	inconclusive: 35.3%
Cn1c(-c2ccccc2)cc(=O)cc1-c1ccccc1	inactive: 5.85%
Cc1cccc(C)c1NC(=O)CN1CCNCC1	inconclusive: 32.4%
O=C(Nc1ccccc1)C1C(c2ccccc2)C1(Cl)Cl (stereo not given)	inactive: 1.49%
CCOc1ccc2nc(SCC(=O)c3ccc(Cl)s3)sc2c1	inconclusive: 34.7%
Cc1ccc(N2C(=O)C3CC3C2=O)cc1 (stereo not given)	inconclusive: 45.7%
Cn1c(=O)c2c(nc(CN3CCN(c4ccccc4F)CC3)n2CCCc2ccccc2)n(C)c1=O	inactive: -4.05%
COc1ccc(Oc2ccc(/C=C/C(=O)c3ccc(O)cc3)cc2[N+](=O)[O-])cc1	active: 99.4%
COc1ccc(C2c3ccc(O)cc3Oc3ncn4nc(-c5ccccn5)nc4c32)cc1OC (stereo not given)	inconclusive: 38.9%
CC1(C(=O)NS(=O)(=O)c2ccccc2Cl)CCN1C(=O)c1ccccc1CCc1ccccc1 (stereo not given)	inconclusive: 103%
O=C(Nc1ccc(Br)cc1F)c1cccnc1	inconclusive: 33.2%
Cc1cccc(/C=N\Nc2cn[nH]c(=O)c2Cl)c1	inactive: -9.16%
O=C1N[C@@H](Cc2c[nH]c3ccccc23)COC(=O)[C@@H](Cc2ccc(F)cc2)C/C=C\C[C@H]1CC(=O)N(CCO)Cc1ccccc1	inconclusive: 30.3%
C=CCC[C@@H](Cc1ccc(F)cc1)C(=O)OC[C@@H](Cc1c[nH]c2ccccc12)NC(=O)[C@H](CC=C)CC(=O)NCCO	inconclusive: 33.5%
CCN1C(=O)C2C(c3ccccc3F)NC(Cc3ccc(O)cc3)(C(=O)OC)C2C1=O (stereo not given)	active: 52.7%
O=C(Oc1ccc(O)cc1)C12CC3CC(CC(C3)C1)C2	active: 65.3%
COc1ccc(CNCc2c(O)c(Cl)cc3c(C)c(C)c(=O)oc23)c(OC)c1	inactive: -8.72%
CC(=O)OC1CCC2C3CCC4=C(CC(F)C(=O)C4)C3CCC12C (stereo not given)	active: 70.6%
Cc1cc(C)cc(NC(=O)Nc2cccnc2)c1	inconclusive: 33.7%

Four records drawn at random from those above:
Structure (SMILES)	inhibition
O=C(c1ccc(NS(=O)(=O)c2ccccc2)cc1)N1CCOCC1	inconclusive: 34.2%
COC(=O)CC1OCC=C2CN3CCC45C6=CC(=O)C(=O)C([N+](=O)[O-])=C6NC4C1C2CC35 (stereo not given)	active: 85%
O=C(Oc1ccc(O)cc1)C12CC3CC(CC(C3)C1)C2	active: 65.3%
Cc1cc(C)cc(NC(=O)Nc2cccnc2)c1	inconclusive: 33.7%

Sorted by length of the SMILES (falling): 3 of the compounds above
Structure (SMILES)	inhibition
O=C(/C=C/c1ccc(NC(=O)c2ccccc2-c2ccccc2C(=O)O)cc1)c1ccccc1	inconclusive: 37.8%
C=CCSc1nc2ccccc2c2nc(-c3ccccc3)nn12	inconclusive: 35.6%
COc1c(Br)cc(C(N)=O)cc1OCc1ccccc1	inconclusive: 31%

The list continues:

Structure (SMILES)	inhibition
O=C(Nc1cccc(S(=O)(=O)Nc2ccc(SC(F)F)cc2)c1)C1CCC1	inconclusive: 30.2%
COc1cc(/C=C2\SC(=S)N(NS(=O)(=O)c3ccc(C)cc3)C2=O)ccc1O	inconclusive: 32.6%
Cc1ccccc1NCc1ccccc1O	inconclusive: 31.3%
O=C(CCN1C(=O)C2C3C=CC(C4CC34)C2C1=O)Oc1ccccc1 (stereo not given)	inconclusive: 33.3%
C[C@@H]1O[C@@H](O[C@H]2[C@H](O)[C@@H](O)[C@H](Oc3c(-c4ccc(O)c(O)c4)oc4cc(O)cc(O)c4c3=O)O[C@@H]2CO)[C@H](O)[C@H](O)[C@H]1O	active: 67.3%
COc1ccc(CN=C(NS(=O)(=O)c2cccs2)SC)cc1	inactive: 3.36%
O=C1NC[C@H](Cc2ccccc2)N(C[C@H]2CCCN2C[C@H](Cc2ccc(O)cc2)N2C[C@H](Cc3ccc(O)cc3)N(CC3CCCCCC3)C(=O)C2=O)C1=O	active: 39%
O=C(Nc1ccccc1N1CCCC1)c1cc(Cl)ccc1Cl	inconclusive: 31.1%
Cc1nnc(SCc2cc(=O)oc3cc(O)ccc23)n1Cc1ccccc1	inconclusive: 31.2%
CCOC(=O)c1c(C)nc2sc3c(=O)n(-c4ccc(C(C)=O)cc4)cnc3c2c1-c1ccc(Cl)cc1	inconclusive: 32%
CC(C)(C)NC(=O)/C(=C\c1ccccc1F)NC(=O)c1ccc([N+](=O)[O-])cc1	inactive: 0.731%
Clc1ccc(SCc2cc(N3CCOCC3)nc(-c3ccccn3)n2)cc1	inactive: 4.83%
Cc1ccc(S(=O)(=O)CCc2nnc(N)s2)cc1C	inactive: 2.04%
CCOC(=O)c1sc(-n2[nH]c(C)cc2=O)nc1C	inconclusive: 30.1%
CCn1c(SCC(=O)NC2CC2)nnc1-c1ccccc1	inconclusive: 104%
CCCCN(C(=O)C1=CC=CN2CCS(=O)(=O)N=C12)c1ccccc1	active: 36.6%
CCOC(=O)COn1c(=O)c(-c2ccccc2)[n+]([O-])c2ccccc21	inactive: -2.56%
COc1ccc2c(c1)c(=Cc1ccc(N(C)C)cc1)c1cc(-c3ccccc3)[n+](C)n12	inconclusive: 32.2%
O=C(NCc1cccs1)C1CC(c2ccc(F)cc2)=NO1 (stereo not given)	inconclusive: 46.8%
CC1CCC/C(=N\NC(=O)c2ccncc2)C1 (stereo not given)	inactive: -2.59%
CCOC(=O)c1ccc(NC(=O)C2(c3ccc(Cl)cc3)CCCC2)cc1	inconclusive: 31.6%
Cc1ccc(Nc2c(-c3ccccc3O)nc3cnccn23)cc1	inactive: -5.94%

Structure (SMILES)	inhibition
C/C=C(\C)C(=O)NCCN1C2=NC[C@H](Cc3ccc(O)cc3)N2C[C@H]1Cc1ccc(O)cc1	active: 44.7%
N=c1c(C(=O)NCc2ccc(F)cc2)cc2c(=O)n3ccccc3nc2n1CC1CCCO1 (stereo not given)	inconclusive: 32.2%
COc1ccccc1CC(=O)Nc1cccc(C)n1	inactive: -5.43%
COc1ccc(C(=O)Nc2ccc(/C(C)=N/NC(=O)c3ccncc3)cc2)cc1	inactive: 5.88%
COc1ccc(S(=O)(=O)NCC(c2ccc(F)cc2)N2CCOCC2)cc1Br (stereo not given)	active: 30.5%
COC(=O)C1CCN(C(=O)/C=C/c2ccc(OC)cc2)CC1	inconclusive: 42.9%
CCN1CCN(Cc2ccc(NC(=O)c3cc(NC(=O)c4cc(-c5ccc(OC)cc5)n[nH]4)cc(OC)c3)cc2C(F)(F)F)CC1	inconclusive: 30.4%
COc1ccc(C/C(N)=N/O)cc1	inconclusive: 39.9%
NC1=NC[C@H](Cc2ccc(O)cc2)N1CC1CCCCC1	inconclusive: 31.7%
Cn1c(=NC(=O)CSCC(=O)N2CCCC2)sc2ccccc21	inconclusive: 38.7%
Cn1nc(-c2ccccn2)nc2c(=O)n(C)c(=O)nc1-2	active: 139%
CCC1Nc2ncnc(N3CCCCC3)c2N(Cc2ccc(C)cc2)C1=O (stereo not given)	inconclusive: 32.7%
CC(C)C[C@@H](CN1CCC[C@@H]1CN1C(=O)C(=O)NC[C@@H]1Cc1ccccc1)N1C[C@H](Cc2ccc(O)cc2)N(CCc2ccccc2)C(=O)C1=O	active: 47.9%
CCc1ccc(NC(=O)Nc2ccncc2)cc1	inconclusive: 54.6%
Cc1c(Br)c(O)c(Br)c(O)c1/C=N/n1c(-c2ccccc2)n[nH]c1=S	inactive: -4.98%
Cn1c(CNc2ccc(Cl)cc2)nnc1SCC#N	inconclusive: 37.1%
CCc1ccc2[nH]c(=O)c(CN(Cc3ccccc3OC)Cc3nnnn3Cc3ccco3)cc2c1	inconclusive: 30.5%
CCOc1cc(N2CCOCC2)c(OCC)cc1NC(=O)COC(=O)[C@H](Cc1c[nH]c2ccccc12)NC(C)=O	active: 44.5%
CCOc1ccc2[nH]c(=O)c(CN(CCO)C(=O)CC)cc2c1	inconclusive: 37.1%

Source: PubChem BioAssay AID588391 (Broad Institute, 2011)
